According to article PMC4117610:
No constants are given. Whether binding was seen depends on the method and setting. In cells and extracts the contact can be indirect. Some results given as binding are weak or reduced against the parent protein; the word gives no strength.

Protein sequences, listed by entry. Tags and fused reporters are not part of them.
UniProt Q86TM6: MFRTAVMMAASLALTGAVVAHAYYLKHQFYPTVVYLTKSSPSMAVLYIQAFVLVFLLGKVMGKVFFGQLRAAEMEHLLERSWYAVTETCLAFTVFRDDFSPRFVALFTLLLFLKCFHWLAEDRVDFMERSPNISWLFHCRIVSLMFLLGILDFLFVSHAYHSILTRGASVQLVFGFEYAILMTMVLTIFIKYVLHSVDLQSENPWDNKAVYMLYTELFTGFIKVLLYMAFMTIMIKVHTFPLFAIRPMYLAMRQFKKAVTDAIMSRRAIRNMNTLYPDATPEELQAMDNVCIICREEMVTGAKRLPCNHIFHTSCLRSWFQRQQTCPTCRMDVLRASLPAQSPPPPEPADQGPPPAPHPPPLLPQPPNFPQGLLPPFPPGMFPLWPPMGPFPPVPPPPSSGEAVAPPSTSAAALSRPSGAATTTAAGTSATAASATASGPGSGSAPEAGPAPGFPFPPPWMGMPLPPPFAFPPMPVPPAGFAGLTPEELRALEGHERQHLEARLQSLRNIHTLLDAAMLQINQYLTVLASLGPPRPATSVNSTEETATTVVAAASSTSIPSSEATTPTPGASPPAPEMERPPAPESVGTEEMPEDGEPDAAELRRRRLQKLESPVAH

T1: Derlin-2 (human (endogenous in HeLa and 293)) (UniProt Q9GZP9)
T1 sequence: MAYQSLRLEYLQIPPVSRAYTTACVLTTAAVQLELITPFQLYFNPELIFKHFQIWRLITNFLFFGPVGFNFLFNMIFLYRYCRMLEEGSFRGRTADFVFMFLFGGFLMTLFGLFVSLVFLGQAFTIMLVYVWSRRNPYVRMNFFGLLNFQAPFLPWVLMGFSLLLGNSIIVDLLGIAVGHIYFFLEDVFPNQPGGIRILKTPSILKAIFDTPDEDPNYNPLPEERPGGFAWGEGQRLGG

B1: Derlin-2 (protein, UniProt Q9GZP9 1-239)
chain: T1 sequence

Columns and labels:
[1] = target: T1, Derlin-2 (human (endogenous in HeLa and 293)); test: co-IP; Derl2 precipitated with rabbit anti-Derl2 antibody and protein-A sepharose from lysates (1% digitonin, 25 mM Tris-HCl, 150 mM NaCl, 5 mM EDTA, pH 7.0) of wildtype and Derl2-deleted cells, as in Fig. 2i (HeLa); western blot for Hrd1
[2] = target: E3 ubiquitin-protein ligase Hrd1 (human (endogenous in HeLa and 293)) (UniProt Q86TM6); test: co-IP; Hrd1 precipitated with mouse anti-Hrd1/SYVN1 monoclonal antibody and protein-A sepharose from lysates (1% digitonin, 25 mM Tris-HCl, 150 mM NaCl, 5 mM EDTA, pH 7.0) of wildtype and ΔHrd1 cells (293); western blot for Derl2

| Molecule | binding [1] | binding [2] |
| --- | --- | --- |
| E3 ubiquitin-protein ligase Hrd1 (from UniProt Q86TM6 1-617) | binds | – |
| B1 | – | binds |
